Measured values: article PMC6739341
These are yes or no findings as the source states them, for the method shown. In cells and extracts the contact can be indirect. Some binding calls cover weakened binding; strength is not graded here. For part of these data: Tags and fused reporters may be left off the sequences shown.

Protein sequences, listed by entry. Tags and fused reporters are not part of them.
UniProt Q13185: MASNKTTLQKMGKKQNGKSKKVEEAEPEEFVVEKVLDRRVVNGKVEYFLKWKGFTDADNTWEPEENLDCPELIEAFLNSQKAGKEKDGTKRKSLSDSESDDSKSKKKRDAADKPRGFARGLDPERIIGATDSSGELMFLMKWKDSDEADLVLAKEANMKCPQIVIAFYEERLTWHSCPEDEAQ
UniProt Q13263: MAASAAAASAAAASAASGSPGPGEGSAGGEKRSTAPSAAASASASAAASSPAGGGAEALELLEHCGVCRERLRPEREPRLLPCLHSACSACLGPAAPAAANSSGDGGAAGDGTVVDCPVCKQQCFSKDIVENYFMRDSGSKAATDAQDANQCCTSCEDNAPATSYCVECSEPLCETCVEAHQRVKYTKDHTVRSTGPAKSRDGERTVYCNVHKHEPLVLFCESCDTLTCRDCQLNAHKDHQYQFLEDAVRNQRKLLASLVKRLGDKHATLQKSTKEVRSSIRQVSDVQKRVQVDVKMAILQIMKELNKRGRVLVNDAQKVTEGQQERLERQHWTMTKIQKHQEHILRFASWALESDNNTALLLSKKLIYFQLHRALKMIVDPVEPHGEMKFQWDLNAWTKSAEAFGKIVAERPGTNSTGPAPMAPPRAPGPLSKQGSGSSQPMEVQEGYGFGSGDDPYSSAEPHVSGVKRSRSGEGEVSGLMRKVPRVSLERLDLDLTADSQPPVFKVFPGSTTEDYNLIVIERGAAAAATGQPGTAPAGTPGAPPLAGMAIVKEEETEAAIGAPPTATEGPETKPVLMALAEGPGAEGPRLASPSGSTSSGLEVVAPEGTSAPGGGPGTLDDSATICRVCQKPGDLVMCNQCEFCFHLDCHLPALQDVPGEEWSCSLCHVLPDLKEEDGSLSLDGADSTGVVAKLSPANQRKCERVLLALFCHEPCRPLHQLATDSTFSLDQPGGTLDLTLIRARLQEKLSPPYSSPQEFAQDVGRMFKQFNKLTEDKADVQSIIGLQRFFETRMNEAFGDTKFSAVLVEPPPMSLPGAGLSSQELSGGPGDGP

T1: C11orf46, endogenous in HeLa (human (endogenous in HeLa)) (UniProt Q8N8R7)
T1 sequence: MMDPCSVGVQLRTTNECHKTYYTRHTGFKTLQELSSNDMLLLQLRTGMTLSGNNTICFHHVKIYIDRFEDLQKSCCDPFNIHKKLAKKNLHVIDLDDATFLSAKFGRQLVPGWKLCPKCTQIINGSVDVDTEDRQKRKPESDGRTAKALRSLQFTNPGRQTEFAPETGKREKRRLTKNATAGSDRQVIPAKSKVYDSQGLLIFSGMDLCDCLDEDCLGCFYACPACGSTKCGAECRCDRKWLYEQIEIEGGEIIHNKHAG

T2: FLAG-HA-tagged full length C11orf46 (human) (UniProt Q8N8R7)
T2 sequence: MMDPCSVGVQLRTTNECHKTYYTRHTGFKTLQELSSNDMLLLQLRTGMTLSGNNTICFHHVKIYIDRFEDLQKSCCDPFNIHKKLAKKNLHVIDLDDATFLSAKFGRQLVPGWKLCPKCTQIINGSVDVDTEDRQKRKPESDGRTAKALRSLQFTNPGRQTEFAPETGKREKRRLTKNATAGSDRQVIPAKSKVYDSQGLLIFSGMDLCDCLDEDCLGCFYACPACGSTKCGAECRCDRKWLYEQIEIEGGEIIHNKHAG

T3: FLAG-C11orf46^R236H (human) (UniProt Q8N8R7)
T3 sequence: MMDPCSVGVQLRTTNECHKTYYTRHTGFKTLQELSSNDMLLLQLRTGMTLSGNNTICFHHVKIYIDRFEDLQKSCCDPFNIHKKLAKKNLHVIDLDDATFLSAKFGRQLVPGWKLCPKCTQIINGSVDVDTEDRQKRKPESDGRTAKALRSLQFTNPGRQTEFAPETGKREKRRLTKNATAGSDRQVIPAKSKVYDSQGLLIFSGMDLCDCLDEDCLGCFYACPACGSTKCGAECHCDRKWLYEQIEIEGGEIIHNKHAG


Experiments:
[1] = target: T1, C11orf46, endogenous in HeLa (human (endogenous in HeLa)); experiment: co-IP; mouse anti-C11orf46 antibody in HeLa cells
[2] = target: T2, FLAG-HA-tagged full length C11orf46 (human); experiment: co-IP; protein lysates from HEK293 cells overexpressing FLAG-tagged C11orf46, C11orf46∆ or C11orf46^R236H (doxycycline-inducible); co-precipitates read by immunoblot
[3] = target: T3, FLAG-C11orf46^R236H (human); experiment: as above

binding [1] | binding [2] | binding [3] | Molecule
binds |  |  | heterochromatin-associated protein 1gamma (HP1γ), endogenous in HeLa (from UniProt Q13185 1-183)
binds |  |  | MCAF1, endogenous in HeLa (protein, UniProt Q6VMQ6 1-1270) MDSLEEPQKKVFKARKTMRVSDRQQLEAVYKVKEELLKTDVKLLNGNHENGDLDPTSPLENMDYIKDKEEVNGIEEICFDPEGSKAEWKETPCILSVNVKNKQDDDLNCEPLSPHNITPEPVSKLPAEPVSGDPAPGDLDAGDPASGVLASGDSTSGDPTSSEPSSSDAASGDATSGDAPSGDVSPGDATSGDATADDLSSGDPTSSDPIPGEPVPVEPISGDCAADDIASSEITSVDLASGAPASTDPASDDLASGDLSSSELASDDLATGELASDELTSESTFDRTFEPKSVPVCEPVPEIDNIEPSSNKDDDFLEKNGADEKLEQIQSKDSLDEKNKADNNIDANEETLETDDTTICSDRPPENEKKVEEDIITELALGEDAISSSMEIDQGEKNEDETSADLVETINENVIEDNKSENILENTDSMETDEIIPILEKLAPSEDELTCFSKTSLLPIDETNPDLEEKMESSFGSPSKQESSESLPKEAFLVLSDEEDISGEKDESEVISQNETCSPAEVESNEKDNKPEEEEQVIHEDDERPSEKNEFSRRKRSKSEDMDNVQSKRRRYMEEEYEAEFQVKITAKGDINQKLQKVIQWLLEEKLCALQCAVFDKTLAELKTRVEKIECNKRHKTVLTELQAKIARLTKRFEAAKEDLKKRHEHPPNPPVSPGKTVNDVNSNNNMSYRNAGTVRQMLESKRNVSESAPPSFQTPVNTVSSTNLVTPPAVVSSQPKLQTPVTSGSLTATSVLPAPNTATVVATTQVPSGNPQPTISLQPLPVILHVPVAVSSQPQLLQSHPGTLVTNQPSGNVEFISVQSPPTVSGLTKNPVSLPSLPNPTKPNNVPSVPSPSIQRNPTASAAPLGTTLAVQAVPTAHSIVQATRTSLPTVGPSGLYSPSTNRGPIQMKIPISAFSTSSAAEQNSNTTPRIENQTNKTIDASVSKKAADSTSQCGKATGSDSSGVIDLTMDDEESGASQDPKKLNHTPVSTMSSSQPVSRPLQPIQPAPPLQPSGVPTSGPSQTTIHLLPTAPTTVNVTHRPVTQVTTRLPVPRAPANHQVVYTTLPAPPAQAPLRGTVMQAPAVRQVNPQNSVTVRVPQTTTYVVNNGLTLGSTGPQLTVHHRPPQVHTEPPRPVHPAPLPEAPQPQRLPPEAASTSLPQKPHLKLARVQSQNGIVLSWSVLEVDRSCATVDSYHLYAYHEEPSATVPSQWKKIGEVKALPLPMACTLTQFVSGSKYYFAVRAKDIYGRFGPFCDPQSTDVISSTQSS

The remaining lines, values behind:

Molecule | binding [1] | binding [2] | binding [3]
KRAB associated protein (KAP1), endogenous in HEK293 (from UniProt Q13263 1-835) |  | binds | binds
MBD-containing-associated factor (MCAF1), endogenous in HEK293 (protein, UniProt Q6VMQ6 1-1270) MDSLEEPQKKVFKARKTMRVSDRQQLEAVYKVKEELLKTDVKLLNGNHENGDLDPTSPLENMDYIKDKEEVNGIEEICFDPEGSKAEWKETPCILSVNVKNKQDDDLNCEPLSPHNITPEPVSKLPAEPVSGDPAPGDLDAGDPASGVLASGDSTSGDPTSSEPSSSDAASGDATSGDAPSGDVSPGDATSGDATADDLSSGDPTSSDPIPGEPVPVEPISGDCAADDIASSEITSVDLASGAPASTDPASDDLASGDLSSSELASDDLATGELASDELTSESTFDRTFEPKSVPVCEPVPEIDNIEPSSNKDDDFLEKNGADEKLEQIQSKDSLDEKNKADNNIDANEETLETDDTTICSDRPPENEKKVEEDIITELALGEDAISSSMEIDQGEKNEDETSADLVETINENVIEDNKSENILENTDSMETDEIIPILEKLAPSEDELTCFSKTSLLPIDETNPDLEEKMESSFGSPSKQESSESLPKEAFLVLSDEEDISGEKDESEVISQNETCSPAEVESNEKDNKPEEEEQVIHEDDERPSEKNEFSRRKRSKSEDMDNVQSKRRRYMEEEYEAEFQVKITAKGDINQKLQKVIQWLLEEKLCALQCAVFDKTLAELKTRVEKIECNKRHKTVLTELQAKIARLTKRFEAAKEDLKKRHEHPPNPPVSPGKTVNDVNSNNNMSYRNAGTVRQMLESKRNVSESAPPSFQTPVNTVSSTNLVTPPAVVSSQPKLQTPVTSGSLTATSVLPAPNTATVVATTQVPSGNPQPTISLQPLPVILHVPVAVSSQPQLLQSHPGTLVTNQPSGNVEFISVQSPPTVSGLTKNPVSLPSLPNPTKPNNVPSVPSPSIQRNPTASAAPLGTTLAVQAVPTAHSIVQATRTSLPTVGPSGLYSPSTNRGPIQMKIPISAFSTSSAAEQNSNTTPRIENQTNKTIDASVSKKAADSTSQCGKATGSDSSGVIDLTMDDEESGASQDPKKLNHTPVSTMSSSQPVSRPLQPIQPAPPLQPSGVPTSGPSQTTIHLLPTAPTTVNVTHRPVTQVTTRLPVPRAPANHQVVYTTLPAPPAQAPLRGTVMQAPAVRQVNPQNSVTVRVPQTTTYVVNNGLTLGSTGPQLTVHHRPPQVHTEPPRPVHPAPLPEAPQPQRLPPEAASTSLPQKPHLKLARVQSQNGIVLSWSVLEVDRSCATVDSYHLYAYHEEPSATVPSQWKKIGEVKALPLPMACTLTQFVSGSKYYFAVRAKDIYGRFGPFCDPQSTDVISSTQSS |  | binds | binds
